Laboratory results taken from the supplement of paper PMC6078165.
Values are relative to the signal before dosing, not to a vehicle control; the signal also falls without drug.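 Fibroblast labels name human fibroblasts: mostly primary ones from tissues such as uterus (C12385, HUF), lung (H6013), bone (Hs27A), adrenal (HADF) and skin (WS1), plus mammary HMF and breast cancer-associated Hs343T. The cancer cells are basal-like or mesenchymal-like triple-negative breast cancer lines. The paper calls a changed response a hit when it shifts by more than 3x the replicate standard deviation. The tissue of the other fibroblasts is not given here.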

Tested on: MDAMB436
Assay: relative JC-1 red fluorescence (viability) vs pre-drug, coculture with fibroblast (fraction); higher = more viable cancer cells
Protocol: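 JC-1 labelled TNBC cells cocultured 1:1 (1,500 cells each) with CellTrace Violet stained primary or stromal fibroblasts in 384-well plates in FluoroBrite medium, treated with one of 42 anticancer drugs at 0.1, 1, 10 or 100 uM. JC-1 red fluorescence (mitochondrial integrity in cancer cells only) was read by plate reader every 8 h for 72 h. Values are normalised to each well's pre-drug value. The stock of one drug was tenfold lower, so its dose labels may be too high.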

CO[C@H]1C[C@@H]2CC[C@@H](C)[C@@](O)(O2)C(=O)C(=O)N2CCCC[C@H]2C(=O)O[C@H]([C@H](C)C[C@@H]2CC[C@@H](OCCO)[C@H](OC)C2)CC(=O)[C@H](C)/C=C(\C)[C@@H](O)[C@@H](OC)C(=O)[C@H](C)C[C@H](C)/C=C/C=C/C=C/1C [Everolimus]
relative JC-1 red fluorescence
Details | 8 h | 16 h | 24 h | 32 h | 40 h | 48 h | 56 h | 64 h | 72 h
10 µM, coculture fibroblast: C12385 | 0.851 | 0.8947 | 0.9378 | 0.8837 | 0.852 | 0.8312 | 0.8065 | 0.785 | 0.775
10 µM, coculture fibroblast: H6013 | 0.869 | 0.9345 | 0.977 | 0.8 | 0.952 | 0.861 | 0.869 | 0.91 | 0.829
10 µM, coculture fibroblast: H6019 | 0.8554 | 0.86 | 0.895 | 0.857 | 0.857 | 0.842 | 0.818 | 0.79 | 0.771
10 µM, coculture fibroblast: H6076 | 0.789 | 0.8357 | 0.91 | 0.909 | 0.922 | 0.911 | 0.934 | 0.922 | 0.904
10 µM, coculture fibroblast: H6231 | 0.826 | 0.879 | 0.855 | 0.939 | 0.923 | 0.885 | 0.873 | 0.837 | 0.827
10 µM, coculture fibroblast: HADF | 0.878 | 0.932 | 0.952 | 0.825 | 0.817 | 0.915 | 0.916 | 0.912 | 0.858
10 µM, coculture fibroblast: HCFa | 0.906 | 0.9119 | 0.832 | 0.841 | 0.955 | 0.963 | 0.881 | 0.854 | 0.784
10 µM, coculture fibroblast: HCPF | 0.837 | 0.896 | 0.942 | 0.895 | 0.893 | 0.852 | 0.8245 | 0.804 | 0.785
10 µM, coculture fibroblast: HHSteC | 0.847 | 0.853 | 0.926 | 0.848 | 0.903 | 0.803 | 0.833 | 0.818 | 0.8635
10 µM, coculture fibroblast: HMF | 0.935 | 0.856 | 0.983 | 0.957 | 0.932 | 0.875 | 0.853 | 0.817 | 0.79
10 µM, coculture fibroblast: HPFa | 0.949 | 0.897 | 0.88 | 0.799 | 0.784 | 0.804 | 0.883 | 0.841 | 0.868
10 µM, coculture fibroblast: HUF | 0.8988 | 0.919 | 0.94 | 0.902 | 0.853 | 0.814 | 0.782 | 0.765 | 0.751
10 µM, coculture fibroblast: Hs5 | 0.885 | 0.926 | 0.963 | 0.912 | 0.892 | 0.821 | 0.816 | 0.764 | 0.738
10 µM, coculture fibroblast: Hs27A | 0.812 | 0.869 | 0.84 | 0.828 | 0.864 | 0.802 | 0.861 | 0.949 | 0.881
10 µM, coculture fibroblast: Hs343T | 0.8435 | 0.8688 | 0.918 | 0.895 | 0.885 | 0.84 | 0.835 | 0.821 | 0.808
10 µM, coculture fibroblast: WS1 | 0.845 | 0.864 | 0.901 | 0.847 | 0.826 | 0.803 | 0.779 | 0.751 | 0.735
100 µM, coculture fibroblast: C12385 | 0.878 | 0.836 | 0.645 | 0.475 | 0.392 | 0.389 | 0.394 | 0.422 | 0.448
100 µM, coculture fibroblast: H6013 | 0.834 | 0.854 | 0.826 | 0.817 | 0.862 | 0.79 | 0.691 | 0.688 | 0.7
100 µM, coculture fibroblast: H6019 | 0.906 | 0.787 | 0.861 | 0.733 | 0.629 | 0.575 | 0.541 | 0.544 | 0.565
100 µM, coculture fibroblast: H6076 | 0.727 | 0.769 | 0.818 | 0.822 | 0.669 | 0.58 | 0.609 | 0.649 | 0.698
100 µM, coculture fibroblast: H6231 | 0.798 | 0.781 | 0.888 | 0.801 | 0.94 | 0.762 | 0.752 | 0.778 | 0.829
100 µM, coculture fibroblast: HADF | 0.83 | 0.833 | 0.8601 | 0.859 | 0.864 | 0.783 | 0.703 | 0.788 | 0.73
100 µM, coculture fibroblast: HCFa | 0.843 | 0.814 | 0.852 | 0.887 | 0.7947 | 0.812 | 0.783 | 0.747 | 0.74
100 µM, coculture fibroblast: HCPF | 0.815 | 0.782 | 0.751 | 0.877 | 0.722 | 0.578 | 0.548 | 0.57 | 0.61
100 µM, coculture fibroblast: HHSteC | 0.936 | 0.874 | 0.9263 | 0.792 | 0.7103 | 0.789 | 0.825 | 0.881 | 0.863
100 µM, coculture fibroblast: HMF | 0.75 | 0.739 | 0.833 | 0.8499 | 0.75 | 0.637 | 0.571 | 0.579 | 0.6
100 µM, coculture fibroblast: HPFa | 0.858 | 0.8406 | 0.7077 | 0.865 | 0.813 | 0.898 | 0.896 | 0.86 | 0.749
100 µM, coculture fibroblast: HUF | 0.759 | 0.885 | 0.887 | 0.695 | 0.567 | 0.46 | 0.434 | 0.443 | 0.463
100 µM, coculture fibroblast: Hs5 | 0.937 | 0.8983 | 0.881 | 0.662 | 0.5732 | 0.486 | 0.518 | 0.53 | 0.56
100 µM, coculture fibroblast: Hs27A | 0.862 | 0.93 | 0.887 | 0.801 | 0.945 | 0.922 | 0.82 | 0.789 | 0.757
100 µM, coculture fibroblast: Hs343T | 0.83 | 0.795 | 0.755 | 0.846 | 0.806 | 0.707 | 0.704 | 0.76461 | 0.8353
100 µM, coculture fibroblast: WS1 | 0.859 | 0.84 | 0.805 | 0.642 | 0.527 | 0.459 | 0.43 | 0.424 | 0.444
